These are yes or no findings as the source states them, for the method shown. Binding seen in cells or lysates may run through a third protein. A yes stands for co-enrichment or nearness to the bait. Other partners may have been found. For some assays here: Sequences can lack the tags named with a protein. Each block holds one molecule with its values, some of them ahead of it.
Tests used:
PARP1-GFP = molecular target: T1, PARP1-GFP (UniProt P09874 1-1014); assay: affinity purification with mass spectrometry; GFP pull-down of PARP1-GFP or GFP-PARP2 from U2OS (FRT) WT cells, label-free proteomics with iBAQ quantification; cells unirradiated or UV-C-irradiated (20 J/m^2, 1 h)
T1 construct: source: U2OS (FRT) WT, stably expressed (Flp-In, doxycycline-inducible), in lysate; not shown: GFP, C-terminal, kept

The chains behind the UniProt entries cited, without tags or fusion partners. Where a name states a change or a piece, a line headed by the entry shows the natural chain unless it says otherwise. A line that says so, or that is headed by a name, gives the form on record, which may keep a tag or linker.
UniProt P09874: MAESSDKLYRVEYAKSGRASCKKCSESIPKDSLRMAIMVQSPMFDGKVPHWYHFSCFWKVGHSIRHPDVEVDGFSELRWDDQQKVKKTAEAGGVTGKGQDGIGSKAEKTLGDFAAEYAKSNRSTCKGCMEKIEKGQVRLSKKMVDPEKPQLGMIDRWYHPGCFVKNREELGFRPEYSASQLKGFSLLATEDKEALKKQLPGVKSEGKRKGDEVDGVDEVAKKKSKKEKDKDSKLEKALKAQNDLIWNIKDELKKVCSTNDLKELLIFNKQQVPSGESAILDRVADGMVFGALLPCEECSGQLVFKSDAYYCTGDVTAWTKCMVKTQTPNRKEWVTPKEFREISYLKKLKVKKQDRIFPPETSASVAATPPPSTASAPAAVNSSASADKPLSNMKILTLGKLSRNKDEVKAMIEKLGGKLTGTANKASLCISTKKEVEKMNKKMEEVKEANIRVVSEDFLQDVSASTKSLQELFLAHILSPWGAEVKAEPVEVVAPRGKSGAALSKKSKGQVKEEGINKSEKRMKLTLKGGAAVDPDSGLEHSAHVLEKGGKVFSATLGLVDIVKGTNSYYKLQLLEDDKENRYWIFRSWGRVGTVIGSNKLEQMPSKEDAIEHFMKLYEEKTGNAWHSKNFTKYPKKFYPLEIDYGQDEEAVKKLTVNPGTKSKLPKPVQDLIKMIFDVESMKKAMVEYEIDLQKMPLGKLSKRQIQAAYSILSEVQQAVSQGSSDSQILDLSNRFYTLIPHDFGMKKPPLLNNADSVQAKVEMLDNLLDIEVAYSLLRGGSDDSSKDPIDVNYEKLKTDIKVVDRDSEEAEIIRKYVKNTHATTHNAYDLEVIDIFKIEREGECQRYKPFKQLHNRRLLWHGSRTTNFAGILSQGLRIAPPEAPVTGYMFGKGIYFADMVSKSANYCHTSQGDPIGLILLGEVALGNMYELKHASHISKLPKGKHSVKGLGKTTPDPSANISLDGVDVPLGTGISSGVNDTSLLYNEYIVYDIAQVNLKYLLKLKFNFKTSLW
UniProt Q86WJ1: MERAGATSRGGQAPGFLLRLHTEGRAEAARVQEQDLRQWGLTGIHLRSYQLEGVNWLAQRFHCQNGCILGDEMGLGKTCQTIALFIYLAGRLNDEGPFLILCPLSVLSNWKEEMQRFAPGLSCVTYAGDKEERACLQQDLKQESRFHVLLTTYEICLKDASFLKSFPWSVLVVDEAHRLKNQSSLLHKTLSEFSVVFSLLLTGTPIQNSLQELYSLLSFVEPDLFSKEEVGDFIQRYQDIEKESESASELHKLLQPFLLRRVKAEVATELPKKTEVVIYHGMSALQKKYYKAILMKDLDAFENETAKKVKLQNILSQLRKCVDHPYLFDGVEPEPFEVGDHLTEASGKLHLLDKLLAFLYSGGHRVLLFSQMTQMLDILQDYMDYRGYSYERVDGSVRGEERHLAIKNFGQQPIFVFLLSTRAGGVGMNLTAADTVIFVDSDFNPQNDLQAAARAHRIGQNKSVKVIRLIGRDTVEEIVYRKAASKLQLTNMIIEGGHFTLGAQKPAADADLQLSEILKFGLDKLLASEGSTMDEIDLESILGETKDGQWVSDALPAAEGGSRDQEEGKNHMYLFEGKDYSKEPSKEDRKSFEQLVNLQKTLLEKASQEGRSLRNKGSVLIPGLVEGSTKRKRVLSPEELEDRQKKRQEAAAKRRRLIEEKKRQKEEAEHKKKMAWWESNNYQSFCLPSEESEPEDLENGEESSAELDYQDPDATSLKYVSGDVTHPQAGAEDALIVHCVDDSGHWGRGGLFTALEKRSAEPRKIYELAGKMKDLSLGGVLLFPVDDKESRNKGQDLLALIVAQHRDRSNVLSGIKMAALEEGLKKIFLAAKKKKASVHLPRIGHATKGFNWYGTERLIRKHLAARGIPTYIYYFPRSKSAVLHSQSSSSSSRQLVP
UniProt Q9UGN5: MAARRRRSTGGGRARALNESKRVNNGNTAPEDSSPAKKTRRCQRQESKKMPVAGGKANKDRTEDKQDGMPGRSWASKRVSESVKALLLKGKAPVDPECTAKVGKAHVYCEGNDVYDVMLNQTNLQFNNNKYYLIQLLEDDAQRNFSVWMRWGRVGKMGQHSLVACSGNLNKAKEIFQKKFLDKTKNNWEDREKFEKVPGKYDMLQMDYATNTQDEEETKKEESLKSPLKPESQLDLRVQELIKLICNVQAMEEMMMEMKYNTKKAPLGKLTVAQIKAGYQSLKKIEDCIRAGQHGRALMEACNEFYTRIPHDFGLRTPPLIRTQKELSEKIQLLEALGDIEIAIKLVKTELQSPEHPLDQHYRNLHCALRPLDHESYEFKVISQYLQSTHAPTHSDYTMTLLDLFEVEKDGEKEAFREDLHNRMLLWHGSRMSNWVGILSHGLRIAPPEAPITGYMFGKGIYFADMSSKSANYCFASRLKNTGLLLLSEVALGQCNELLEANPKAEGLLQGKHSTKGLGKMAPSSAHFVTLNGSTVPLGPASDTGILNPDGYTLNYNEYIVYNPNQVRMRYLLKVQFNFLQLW
GFP-PARP2 (Q9UGN5-2, form named): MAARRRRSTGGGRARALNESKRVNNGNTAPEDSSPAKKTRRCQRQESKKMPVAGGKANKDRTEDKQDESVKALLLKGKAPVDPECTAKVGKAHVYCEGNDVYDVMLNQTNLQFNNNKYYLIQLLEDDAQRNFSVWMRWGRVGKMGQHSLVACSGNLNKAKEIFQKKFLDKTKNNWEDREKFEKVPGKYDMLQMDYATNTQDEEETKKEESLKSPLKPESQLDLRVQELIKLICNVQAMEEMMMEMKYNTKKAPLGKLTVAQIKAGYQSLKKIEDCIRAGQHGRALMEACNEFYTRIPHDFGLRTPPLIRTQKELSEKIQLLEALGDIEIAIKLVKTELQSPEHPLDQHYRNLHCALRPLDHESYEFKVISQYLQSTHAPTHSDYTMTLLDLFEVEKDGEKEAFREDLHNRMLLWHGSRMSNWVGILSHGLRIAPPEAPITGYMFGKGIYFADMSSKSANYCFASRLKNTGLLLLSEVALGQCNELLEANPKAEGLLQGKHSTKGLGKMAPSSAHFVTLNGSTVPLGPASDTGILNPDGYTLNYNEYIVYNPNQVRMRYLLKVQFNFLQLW
UniProt Q16531: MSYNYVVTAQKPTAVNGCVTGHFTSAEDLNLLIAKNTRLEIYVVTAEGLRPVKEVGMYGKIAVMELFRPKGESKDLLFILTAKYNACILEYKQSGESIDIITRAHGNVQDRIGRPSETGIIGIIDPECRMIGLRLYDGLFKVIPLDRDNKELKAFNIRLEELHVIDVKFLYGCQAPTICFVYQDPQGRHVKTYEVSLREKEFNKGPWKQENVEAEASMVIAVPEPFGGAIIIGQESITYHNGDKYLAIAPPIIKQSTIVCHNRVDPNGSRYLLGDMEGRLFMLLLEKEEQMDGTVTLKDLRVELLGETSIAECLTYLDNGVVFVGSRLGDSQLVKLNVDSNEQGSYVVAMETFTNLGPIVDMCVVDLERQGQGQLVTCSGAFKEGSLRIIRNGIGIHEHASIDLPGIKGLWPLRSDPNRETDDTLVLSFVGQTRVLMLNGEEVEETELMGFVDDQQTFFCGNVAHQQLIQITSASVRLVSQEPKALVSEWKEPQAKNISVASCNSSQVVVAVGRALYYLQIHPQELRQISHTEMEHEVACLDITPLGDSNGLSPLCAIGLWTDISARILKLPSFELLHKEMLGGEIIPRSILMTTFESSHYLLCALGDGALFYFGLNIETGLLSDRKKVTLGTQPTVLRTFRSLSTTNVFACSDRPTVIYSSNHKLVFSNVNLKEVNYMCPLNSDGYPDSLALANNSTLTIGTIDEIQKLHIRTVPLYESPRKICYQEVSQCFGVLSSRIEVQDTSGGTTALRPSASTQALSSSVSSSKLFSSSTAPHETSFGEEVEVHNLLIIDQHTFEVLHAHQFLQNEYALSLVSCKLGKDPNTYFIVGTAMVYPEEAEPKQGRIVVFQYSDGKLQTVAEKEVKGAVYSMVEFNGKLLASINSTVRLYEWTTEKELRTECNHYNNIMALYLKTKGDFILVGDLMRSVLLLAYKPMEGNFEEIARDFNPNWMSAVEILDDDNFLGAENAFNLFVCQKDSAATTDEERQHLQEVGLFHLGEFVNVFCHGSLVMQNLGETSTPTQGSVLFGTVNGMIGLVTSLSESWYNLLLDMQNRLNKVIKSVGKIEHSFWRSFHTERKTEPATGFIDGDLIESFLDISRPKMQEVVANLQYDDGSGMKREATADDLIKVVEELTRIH
UniProt Q13620: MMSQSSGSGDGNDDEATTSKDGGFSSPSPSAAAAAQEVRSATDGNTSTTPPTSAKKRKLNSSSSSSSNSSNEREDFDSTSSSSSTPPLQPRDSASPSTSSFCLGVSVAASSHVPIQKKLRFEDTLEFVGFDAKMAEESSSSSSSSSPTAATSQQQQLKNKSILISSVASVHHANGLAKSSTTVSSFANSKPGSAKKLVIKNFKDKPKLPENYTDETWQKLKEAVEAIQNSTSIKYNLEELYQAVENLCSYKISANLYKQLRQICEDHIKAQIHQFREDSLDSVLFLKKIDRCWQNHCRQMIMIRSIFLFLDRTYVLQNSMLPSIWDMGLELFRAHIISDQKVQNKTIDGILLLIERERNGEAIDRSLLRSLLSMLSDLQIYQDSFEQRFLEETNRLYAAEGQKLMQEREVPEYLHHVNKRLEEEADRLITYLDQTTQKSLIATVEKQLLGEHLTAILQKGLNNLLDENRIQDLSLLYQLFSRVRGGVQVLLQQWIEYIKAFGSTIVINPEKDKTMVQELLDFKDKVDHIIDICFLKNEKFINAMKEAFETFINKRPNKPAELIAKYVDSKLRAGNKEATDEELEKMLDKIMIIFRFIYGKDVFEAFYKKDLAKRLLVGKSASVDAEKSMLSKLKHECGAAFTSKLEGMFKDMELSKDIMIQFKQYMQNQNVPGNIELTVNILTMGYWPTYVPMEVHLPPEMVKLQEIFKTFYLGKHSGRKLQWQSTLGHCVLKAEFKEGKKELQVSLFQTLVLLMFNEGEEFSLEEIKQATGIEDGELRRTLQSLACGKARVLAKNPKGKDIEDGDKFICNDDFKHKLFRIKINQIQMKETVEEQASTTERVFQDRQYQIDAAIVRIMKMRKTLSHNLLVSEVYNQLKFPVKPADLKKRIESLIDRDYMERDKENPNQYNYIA
UniProt Q92466: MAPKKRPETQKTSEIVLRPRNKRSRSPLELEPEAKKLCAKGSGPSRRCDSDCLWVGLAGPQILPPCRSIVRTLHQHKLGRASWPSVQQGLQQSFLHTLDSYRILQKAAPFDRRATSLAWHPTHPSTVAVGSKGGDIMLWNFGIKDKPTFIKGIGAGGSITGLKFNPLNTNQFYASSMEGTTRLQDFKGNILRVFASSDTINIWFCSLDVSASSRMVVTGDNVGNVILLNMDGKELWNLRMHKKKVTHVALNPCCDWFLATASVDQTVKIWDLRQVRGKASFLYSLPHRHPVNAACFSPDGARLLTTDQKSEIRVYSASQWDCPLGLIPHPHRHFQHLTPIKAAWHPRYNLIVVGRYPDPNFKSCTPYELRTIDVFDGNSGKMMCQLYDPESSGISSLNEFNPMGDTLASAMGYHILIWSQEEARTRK
UniProt P54725: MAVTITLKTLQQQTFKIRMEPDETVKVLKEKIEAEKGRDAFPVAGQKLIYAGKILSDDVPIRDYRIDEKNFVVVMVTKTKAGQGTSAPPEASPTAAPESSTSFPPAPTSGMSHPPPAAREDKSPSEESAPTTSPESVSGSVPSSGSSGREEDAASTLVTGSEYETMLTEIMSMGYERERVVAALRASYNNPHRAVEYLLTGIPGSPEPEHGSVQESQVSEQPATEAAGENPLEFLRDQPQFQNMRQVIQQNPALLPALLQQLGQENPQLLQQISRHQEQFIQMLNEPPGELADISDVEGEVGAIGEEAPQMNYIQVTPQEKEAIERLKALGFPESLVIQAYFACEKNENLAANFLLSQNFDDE

GFP-ALC1 WT = GFP-ALC1 WT (UniProt Q86WJ1); assay: affinity purification with mass spectrometry; GFP pull-down of GFP-ALC1 WT or E175Q from U2OS (FRT) ALC1-KO cells, label-free proteomics
GFP-ALC1 E175Q = GFP-ALC1 E175Q (UniProt Q86WJ1); assay: as above
XPC-GFP = molecular target: T2, XPC-GFP (UniProt Q01831); assay: affinity purification with mass spectrometry; GFP pull-down (GFP-Trap beads) of XPC-GFP over GFP-NLS from U2OS (FRT) XPC-KO cells, label-free proteomics; cells unirradiated or UV-C-irradiated (20 J/m^2, 1 h)
T2 sequence: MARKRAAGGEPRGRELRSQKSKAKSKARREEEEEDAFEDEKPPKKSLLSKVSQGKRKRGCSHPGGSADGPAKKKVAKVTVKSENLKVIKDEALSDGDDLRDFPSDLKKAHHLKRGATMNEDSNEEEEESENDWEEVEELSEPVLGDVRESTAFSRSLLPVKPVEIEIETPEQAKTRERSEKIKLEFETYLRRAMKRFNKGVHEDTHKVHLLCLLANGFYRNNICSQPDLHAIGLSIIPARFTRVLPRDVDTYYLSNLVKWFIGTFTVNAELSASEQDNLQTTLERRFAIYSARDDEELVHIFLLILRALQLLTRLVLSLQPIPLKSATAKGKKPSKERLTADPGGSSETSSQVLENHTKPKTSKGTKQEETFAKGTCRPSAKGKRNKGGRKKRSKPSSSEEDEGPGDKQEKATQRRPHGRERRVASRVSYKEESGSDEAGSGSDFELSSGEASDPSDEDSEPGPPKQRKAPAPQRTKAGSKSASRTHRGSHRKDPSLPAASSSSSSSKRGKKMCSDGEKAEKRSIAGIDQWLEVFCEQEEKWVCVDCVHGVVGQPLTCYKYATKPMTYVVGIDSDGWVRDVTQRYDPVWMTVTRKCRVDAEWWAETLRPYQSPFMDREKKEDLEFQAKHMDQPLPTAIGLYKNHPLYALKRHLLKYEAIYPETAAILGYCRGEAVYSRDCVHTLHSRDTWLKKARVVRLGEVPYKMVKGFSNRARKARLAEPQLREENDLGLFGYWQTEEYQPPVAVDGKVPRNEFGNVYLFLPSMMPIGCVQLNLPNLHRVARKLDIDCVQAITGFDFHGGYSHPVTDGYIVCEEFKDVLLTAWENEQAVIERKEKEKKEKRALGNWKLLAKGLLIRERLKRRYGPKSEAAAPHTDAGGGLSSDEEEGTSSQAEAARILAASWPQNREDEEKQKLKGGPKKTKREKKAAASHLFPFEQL

GFP-PARP2 = molecular target: T3, GFP-PARP2 (UniProt Q9UGN5-2 1-570); assay: affinity purification with mass spectrometry; GFP pull-down of PARP1-GFP or GFP-PARP2 from U2OS (FRT) WT cells, label-free proteomics with iBAQ quantification; cells unirradiated or UV-C-irradiated (20 J/m^2, 1 h)
T3 construct: also called PARP2-GFP; source: U2OS (FRT) WT, stably expressed (Flp-In, doxycycline-inducible), in lysate; not shown: GFP, N-terminal, kept

Molecule: PARP2 (endogenous) (from UniProt Q9UGN5 1-583) (enzyme)
binding (PARP1-GFP): binds | binding (GFP-ALC1 WT): binds | binding (GFP-ALC1 E175Q): binds | binding (XPC-GFP): binds

Molecule: DDB1 (from UniProt Q16531 1-1140)
binding (XPC-GFP): binds

Molecule: PARP1 (endogenous) (from UniProt P09874 1-1014) (enzyme)
binding (GFP-PARP2): binds | binding (GFP-ALC1 WT): binds | binding (XPC-GFP): binds

Molecule: CUL4B (from UniProt Q13620 1-913)
binding (XPC-GFP): binds

Molecule: SPT16 (from UniProt Q9Y5B9 1-1047)
binding (GFP-ALC1 WT): binds

Molecule: DDB2 (from UniProt Q92466 1-427)
binding (XPC-GFP): binds

B1: XPC (endogenous) (natural protein, human (endogenous in U2OS), UniProt Q01831 1-940, looked up)
chain: MARKRAAGGEPRGRELRSQKSKAKSKARREEEEEDAFEDEKPPKKSLLSKVSQGKRKRGCSHPGGSADGPAKKKVAKVTVKSENLKVIKDEALSDGDDLRDFPSDLKKAHHLKRGATMNEDSNEEEEESENDWEEVEELSEPVLGDVRESTAFSRSLLPVKPVEIEIETPEQAKTRERSEKIKLEFETYLRRAMKRFNKGVHEDTHKVHLLCLLANGFYRNNICSQPDLHAIGLSIIPARFTRVLPRDVDTYYLSNLVKWFIGTFTVNAELSASEQDNLQTTLERRFAIYSARDDEELVHIFLLILRALQLLTRLVLSLQPIPLKSATAKGKKPSKERLTADPGGSSETSSQVLENHTKPKTSKGTKQEETFAKGTCRPSAKGKRNKGGRKKRSKPSSSEEDEGPGDKQEKATQRRPHGRERRVASRVSYKEESGSDEAGSGSDFELSSGEASDPSDEDSEPGPPKQRKAPAPQRTKAGSKSASRTHRGSHRKDPSLPAASSSSSSSKRGKKMCSDGEKAEKRSIAGIDQWLEVFCEQEEKWVCVDCVHGVVGQPLTCYKYATKPMTYVVGIDSDGWVRDVTQRYDPVWMTVTRKCRVDAEWWAETLRPYQSPFMDREKKEDLEFQAKHMDQPLPTAIGLYKNHPLYALKRHLLKYEAIYPETAAILGYCRGEAVYSRDCVHTLHSRDTWLKKARVVRLGEVPYKMVKGFSNRARKARLAEPQLREENDLGLFGYWQTEEYQPPVAVDGKVPRNEFGNVYLFLPSMMPIGCVQLNLPNLHRVARKLDIDCVQAITGFDFHGGYSHPVTDGYIVCEEFKDVLLTAWENEQAVIERKEKEKKEKRALGNWKLLAKGLLIRERLKRRYGPKSEAAAPHTDAGGGLSSDEEEGTSSQAEAARILAASWPQNREDEEKQKLKGGPKKTKREKKAAASHLFPFEQL
notes: XPC, endogenous in U2OS cells; source: endogenous, U2OS (FRT) WT lysate
binding (GFP-PARP2): binds

B2: CEN3 (protein, UniProt O15182 1-167)
chain: MSLALRSELVVDKTKRKKRRELSEEQKQEIKDAFELFDTDKDEAIDYHELKVAMRALGFDVKKADVLKILKDYDREATGKITFEDFNEVVTDWILERDPHEEILKAFKLFDDDDSGKISLRNLRRVARELGENMSDEELRAMIEEFDKDGDGEINQEEFIAIMTGDI
binding (XPC-GFP): binds

The remaining lines, values ahead:

binding (XPC-GFP): binds
Molecule: RAD23A (from UniProt P54725 1-363)

binding (GFP-PARP2): binds | binding (PARP1-GFP): binds
Molecule: ALC1 (endogenous) (from UniProt Q86WJ1 1-897) (enzyme)

binding (XPC-GFP): binds
Molecule: CUL4A (from UniProt Q13619 1-759)

— article PMC9376112, “XPC–PARP complexes engage the chromatin remodeler ALC1 to catalyze global genome DNA damage repair” (Nature Communications, 2022)
